From the supplement of paper PMC3334620
In all, about 33,000 sequences were measured (“E-score (-0.5 to 0.5)”: median about -8e-05, highest 2% from about 0.23 on). The list shows a part of the results.

molecular target: T1, Nrg2 (UniProt P38082); test: PBM E-score (8-mer binding enrichment) (E-score (-0.5 to 0.5)); higher = stronger / more preferred TF binding; details: protein concentration: 100 nM; construct: GST-full length
T1 sequence: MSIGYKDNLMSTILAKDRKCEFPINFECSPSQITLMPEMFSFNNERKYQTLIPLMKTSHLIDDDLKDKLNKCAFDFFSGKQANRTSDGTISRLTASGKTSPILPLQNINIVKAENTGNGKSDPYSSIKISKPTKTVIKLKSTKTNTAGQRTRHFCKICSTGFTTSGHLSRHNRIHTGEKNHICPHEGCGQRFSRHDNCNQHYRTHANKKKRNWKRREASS
Summary of the method: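 E-scores (a modified Wilcoxon-Mann-Whitney statistic) were assigned by the Universal PBM Analysis Suite to every ungapped eight-base word pooled with its reverse complement. The input came from universal all-10-mer Agilent arrays made double-stranded by primer extension and probed with GST-tagged yeast transcription factors at about 100-200 nM. Fluorescent anti-GST detected bound protein, and masliner normalised the scans.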

Compared with CAGTTACA, AAAACATG is lower in “PBM E-score” value: 0.0391 for the first, 0.034 for the second.

First: AGCTGATC
Second: GCGATTCA
The “PBM E-score” value of the first is higher: 0.201 for the first, 0.0781 for the second.

First: CTCTCGAC
Second: AGGGACCG
The “PBM E-score” value of the first is lower: -0.215 for the first, 0.231 for the second.

Going from AGATATCG to AGTAGTAA, the “PBM E-score” value rises from 0.0444 to 0.0492.

Going from CGACGGGA to CTCTTGAA, the “PBM E-score” value falls from 0.015 to -0.0353.

Going from CACTGTGA to AATTAGAC, the “PBM E-score” value rises from -0.0622 to 0.119.

Going from ATCCGGCA to ATTGGTCA, the “PBM E-score” value rises from -0.0964 to 0.0477.

First: AGGAGCGA
Second: ATGACTAG
The “PBM E-score” value of the first is lower: -0.218 for the first, -0.149 for the second.

Compared with ATAGAACG, TACGCAAA is lower in “PBM E-score” value: 0.224 for the first, -0.171 for the second.

First: ATCATCGA
Second: AGTCGAGA
The “PBM E-score” value of the first is higher: 0.0858 for the first, 0.00656 for the second.

First: TAGTGGCA
Second: AAAGGCAG
The “PBM E-score” value of the first is higher: -0.00178 for the first, -0.0209 for the second.

First: TCAACGGA
Second: CAACGATC
The “PBM E-score” value of the first is higher: -0.0313 for the first, -0.156 for the second.

Going from AGTTTCTA to GCCGAGAA, the “PBM E-score” value rises from -0.131 to 0.0411.

First: CTTTCAGC
Second: AACCCCTT
The “PBM E-score” value of the first is lower: -0.104 for the first, 0.134 for the second.

Compared with CGGCTATA, AGTGCGCC is lower in “PBM E-score” value: -0.0676 for the first, -0.0896 for the second.

Going from TCGATTAA to CTTACCTA, the “PBM E-score” value falls from 0.207 to 0.042.

Going from GACTCGAC to CAAGCACC, the “PBM E-score” value rises from -0.21 to -0.0996.

First: CTCCAAAA
Second: CATGGAGG
The “PBM E-score” value of the first is higher: -0.136 for the first, -0.188 for the second.

Compared with GCCTGGTA, ACCACACG is lower in “PBM E-score” value: 0.0618 for the first, -0.034 for the second.

Compared with CTAGCGCC, GGTCTAAC is higher in “PBM E-score” value: -0.231 for the first, -0.0523 for the second.

Compared with GCTGTTAC, CACTACCA is higher in “PBM E-score” value: -0.204 for the first, 0.105 for the second.

First: AAGTGTGC
Second: AACCAACT
The “PBM E-score” value of the first is higher: 0.167 for the first, 0.136 for the second.

Going from GTAGAGAC to ACATAACC, the “PBM E-score” value rises from -0.201 to 0.109.

Going from ATTTGGTC to ACGCATCC, the “PBM E-score” value falls from 0.0865 to -0.233.

Going from CAGCGTGG to CCTTTTGA, the “PBM E-score” value rises from -0.209 to 0.058.

Going from GCGTACAA to CACGGCTC, the “PBM E-score” value rises from -0.147 to 0.0174.

First: ACTATGCG
Second: ATGACCTC
The “PBM E-score” value of the first is higher: 0.11 for the first, -0.0645 for the second.

First: AATGGTCT
Second: AGCATGAA
The “PBM E-score” value of the first is lower: -0.037 for the first, 0.155 for the second.

Going from CTCGCATC to GGGCAAGA, the “PBM E-score” value rises from 0.0987 to 0.171.

Going from ACTCAGCG to GATTAGAA, the “PBM E-score” value rises from 0.0845 to 0.0967.

Compared with CTATGTTA, CTTCAGAC is lower in “PBM E-score” value: 0.115 for the first, -0.0785 for the second.

Going from CATGTACA to CCGTTTAC, the “PBM E-score” value rises from -0.159 to 0.00913.

First: AACTGCGC
Second: AGGGGAAA
The “PBM E-score” value of the first is lower: -0.08 for the first, -0.046 for the second.

Going from AATTGGCG to CCGTGACG, the “PBM E-score” value falls from 0.0629 to 0.0344.

First: CAACGTCC
Second: AAGATTTG
The “PBM E-score” value of the first is lower: -0.218 for the first, -0.00761 for the second.

Compared with GATGATGA, GTAGCCAC is lower in “PBM E-score” value: 0.0445 for the first, -0.203 for the second.

Going from ATTACTCC to AAGATTGT, the “PBM E-score” value falls from -0.0106 to -0.0108.

Going from CAACTAGA to AAGATATC, the “PBM E-score” value rises from -0.0228 to 0.149.

Compared with GAGTAGGA, CTATTTGC is lower in “PBM E-score” value: 0.00162 for the first, -0.0144 for the second.

Compared with CCTCGTTA, CGCACTTC is lower in “PBM E-score” value: 0.0397 for the first, -0.0401 for the second.

Compared with AAATTACA, CTTATATA is higher in “PBM E-score” value: 0.00595 for the first, 0.208 for the second.

First: GTCAAATA
Second: GCGGCTTA
The “PBM E-score” value of the first is higher: 0.0158 for the first, -0.132 for the second.

Compared with GTGGAAAC, ACAGGTCT is lower in “PBM E-score” value: 0.00551 for the first, -0.288 for the second.

First: CATAAACA
Second: CTAGGTTA
The “PBM E-score” value of the first is lower: -0.00191 for the first, 0.119 for the second.

Going from GAGTACAC to CGTTTAGC, the “PBM E-score” value falls from -0.00538 to -0.00779.

Compared with ATTAGCGG, AAATTGAG is higher in “PBM E-score” value: 0.00339 for the first, 0.124 for the second.

First: ATAACCGC
Second: ATCAGGCG
The “PBM E-score” value of the first is higher: 0.0917 for the first, 0.0279 for the second.

First: AACCCTTG
Second: AATGCACA
The “PBM E-score” value of the first is higher: 0.194 for the first, 0.0926 for the second.

First: CATCGGAA
Second: AGCTAATA
The “PBM E-score” value of the first is lower: -0.00211 for the first, 0.0888 for the second.

Compared with CGAATGCC, CCTCATCG is higher in “PBM E-score” value: -0.0725 for the first, 0.142 for the second.

First: GAGGTAGA
Second: ATGCCGCG
The “PBM E-score” value of the first is lower: -0.063 for the first, 0.00671 for the second.

Going from CTTTAGTC to CTTAAACA, the “PBM E-score” value rises from -0.146 to 0.0774.

First: CTAGGGGC
Second: GCCAGTAC
The “PBM E-score” value of the first is lower: -0.129 for the first, -0.119 for the second.

Compared with CTAGACTA, GACTGGAC is lower in “PBM E-score” value: -0.0731 for the first, -0.18 for the second.

Compared with ATCGAGGG, ACTACTGG is lower in “PBM E-score” value: 0.12 for the first, -0.11 for the second.

Going from CGCAACCC to CTGTCAGC, the “PBM E-score” value falls from 0.143 to 0.0361.

Going from CCGTAAGC to ACAAATCC, the “PBM E-score” value rises from -0.191 to 0.0969.

Going from AACACGGG to GGGTCATA, the “PBM E-score” value falls from 0.181 to -0.116.

Compared with GTGGTCGA, AGATCCTA is higher in “PBM E-score” value: -0.114 for the first, -0.0612 for the second.

First: GGCGGCTA
Second: CCTCGCCA
The “PBM E-score” value of the first is higher: 0.0414 for the first, -0.195 for the second.

Compared with AGACGCAC, CCACGTGG is higher in “PBM E-score” value: -0.11 for the first, -0.0832 for the second.

Going from TTCGAGAA to ACCCACGC, the “PBM E-score” value falls from 0.0656 to -0.00444.

Compared with CACCTTGA, CCACGTGC is higher in “PBM E-score” value: -0.141 for the first, -0.0896 for the second.

Going from GACTGGCC to AAGACTAC, the “PBM E-score” value rises from -0.164 to 0.105.

First: GCATCAAA
Second: CCCACTAC
The “PBM E-score” value of the first is higher: 0.0814 for the first, 0.0486 for the second.

Going from ATAGACTA to ATCCAAGC, the “PBM E-score” value rises from -0.0062 to -0.00379.

Compared with AAGCAAGT, CATCTACA is higher in “PBM E-score” value: 0.0393 for the first, 0.0424 for the second.

Compared with CCGAGTCG, AACCTGCG is higher in “PBM E-score” value: -0.154 for the first, 0.0269 for the second.

Compared with TAACGGCA, ACACTCAC is higher in “PBM E-score” value: 0.0414 for the first, 0.145 for the second.

Going from ACTCATGC to ACTCTTAA, the “PBM E-score” value falls from -0.0999 to -0.115.

Compared with CGCTTTCC, CAGCCAAA is higher in “PBM E-score” value: -0.1 for the first, 0.0861 for the second.

Going from AAGTGGTG to AGCTGTCA, the “PBM E-score” value rises from -0.0492 to 0.13.

First: AACGGCTC
Second: CTCCACTC
The “PBM E-score” value of the first is higher: -0.0179 for the first, -0.238 for the second.

First: CGCCTTAG
Second: CACAGGGA
The “PBM E-score” value of the first is lower: -0.0566 for the first, 0.139 for the second.

First: CGTTCGGA
Second: CAGAAACC
The “PBM E-score” value of the first is lower: -0.0218 for the first, 0.125 for the second.

First: AACGCCCA
Second: GGCAGTCA
The “PBM E-score” value of the first is higher: 0.0709 for the first, -0.0255 for the second.

Going from CAAGGCTG to CATTCACC, the “PBM E-score” value rises from -0.0192 to 0.161.

Going from CGTGCGTC to CAGGAAAG, the “PBM E-score” value falls from 0.0766 to -0.123.

Going from CCTAAAAG to GGTAACTA, the “PBM E-score” value rises from -0.373 to 0.146.

Compared with CGGCCGGC, AACGTACA is higher in “PBM E-score” value: -0.0678 for the first, 0.036 for the second.

Going from ACTGTGGC to ACGCGTGA, the “PBM E-score” value rises from -0.169 to 0.195.

First: CGTTGATC
Second: GAGGAGCC
The “PBM E-score” value of the first is higher: -0.0004 for the first, -0.2 for the second.

First: CCTAGCCC
Second: AAAGATGT
The “PBM E-score” value of the first is lower: -0.116 for the first, 0.0245 for the second.

Going from CACAGGCA to AACGGAGA, the “PBM E-score” value falls from 0.0159 to -0.036.

Going from ATATCGCG to GCTAGTAA, the “PBM E-score” value falls from 0.331 to 0.139.

Compared with ACTCCAGG, GAGTTCGC is higher in “PBM E-score” value: -0.129 for the first, 0.0858 for the second.
